Results on 1 substance are retold here after publication PMC5733394.

By UniProt entry, the sequences of proteins in these tests, tags left out. Where a name states a change or a piece, a line headed by the entry shows the natural chain unless it says otherwise. Chains listed by the source or under a name are the forms on record and can include a tag or linker. Residues count along the entry.
IRE1^LD-GST (O75460, residues 19-486): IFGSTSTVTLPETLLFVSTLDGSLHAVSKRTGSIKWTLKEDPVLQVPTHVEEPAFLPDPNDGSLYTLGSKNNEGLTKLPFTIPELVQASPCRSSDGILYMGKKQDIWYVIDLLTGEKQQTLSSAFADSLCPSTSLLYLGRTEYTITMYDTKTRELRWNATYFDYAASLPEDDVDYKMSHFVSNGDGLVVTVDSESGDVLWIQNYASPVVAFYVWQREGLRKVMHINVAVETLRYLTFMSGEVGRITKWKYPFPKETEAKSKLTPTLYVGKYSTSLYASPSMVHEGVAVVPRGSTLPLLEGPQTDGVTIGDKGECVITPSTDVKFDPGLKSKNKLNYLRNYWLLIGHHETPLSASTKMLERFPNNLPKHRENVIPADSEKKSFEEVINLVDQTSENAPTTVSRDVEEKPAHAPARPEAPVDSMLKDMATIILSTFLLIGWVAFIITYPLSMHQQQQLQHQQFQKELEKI
IRE1^(LD Q105C)-GST (O75460, form named): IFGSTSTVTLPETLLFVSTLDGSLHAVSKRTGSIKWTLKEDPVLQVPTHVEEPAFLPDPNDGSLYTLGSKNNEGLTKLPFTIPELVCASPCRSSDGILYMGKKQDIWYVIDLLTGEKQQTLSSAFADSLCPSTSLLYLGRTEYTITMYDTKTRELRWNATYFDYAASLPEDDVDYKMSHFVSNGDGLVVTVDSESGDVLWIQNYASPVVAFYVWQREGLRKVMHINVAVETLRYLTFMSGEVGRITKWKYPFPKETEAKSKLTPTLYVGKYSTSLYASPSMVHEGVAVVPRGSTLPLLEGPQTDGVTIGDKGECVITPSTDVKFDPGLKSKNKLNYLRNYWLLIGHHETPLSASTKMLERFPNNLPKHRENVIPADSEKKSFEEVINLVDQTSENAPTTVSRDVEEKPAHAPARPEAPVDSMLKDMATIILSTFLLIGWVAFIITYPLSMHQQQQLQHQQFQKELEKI
UniProt G3I8R9, residues 19-654: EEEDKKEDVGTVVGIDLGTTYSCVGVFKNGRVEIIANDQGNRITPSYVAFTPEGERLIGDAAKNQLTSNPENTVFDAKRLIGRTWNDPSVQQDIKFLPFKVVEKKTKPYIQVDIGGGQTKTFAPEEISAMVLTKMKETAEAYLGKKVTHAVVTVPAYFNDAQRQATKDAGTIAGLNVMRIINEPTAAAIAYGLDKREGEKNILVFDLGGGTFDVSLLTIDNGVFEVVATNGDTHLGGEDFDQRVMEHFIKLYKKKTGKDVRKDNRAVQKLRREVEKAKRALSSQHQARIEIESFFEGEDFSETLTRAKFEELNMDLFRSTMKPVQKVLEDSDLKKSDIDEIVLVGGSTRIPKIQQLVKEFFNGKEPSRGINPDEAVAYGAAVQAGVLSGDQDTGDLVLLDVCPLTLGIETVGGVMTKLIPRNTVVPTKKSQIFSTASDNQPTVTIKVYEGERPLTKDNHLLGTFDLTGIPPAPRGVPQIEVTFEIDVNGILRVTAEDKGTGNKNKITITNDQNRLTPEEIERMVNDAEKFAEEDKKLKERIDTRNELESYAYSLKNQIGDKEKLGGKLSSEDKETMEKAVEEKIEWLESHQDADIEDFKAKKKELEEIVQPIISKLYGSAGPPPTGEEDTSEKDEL

Assay [1] concerns the target IRE1^(LD Q105C)-GST (human) (UniProt O75460). Nature of the assay: pull-down; GST fusions recovered on glutathione Sepharose 4B from lysates of transfected ΔERdj4 CHO cells (co-transfected with ERdj4, ERdj4^QPD or ERdj6 where indicated); ATP-depleting lysis buffer; endogenous BiP by immunoblot; where indicated beads incubated 5 min with 3 mM ATP. A general note: In western blotting, separated proteins are transferred to a membrane and probed.

A further assay addresses IRE1^LD-GST (human) (UniProt O75460). The description is as above.

These are yes or no findings as the source states them, for the method shown. In cells and extracts the contact can be indirect. Some entries that bind do so weakly or less than the wild type.

Consider “endogenous BiP (CHO cells) (from UniProt G3I8R9 19-654)”, for which the binding entry (in assay [1]; in the assay with IRE1^LD-GST (human)) was “binds” each time.
